Results: article PMC3097235
Results are given in words; binding and its absence hold for the method and conditions named. Binding seen in cells or lysates may run through a third protein. Some results given as binding are weak or reduced against the parent protein; the word gives no strength.

T1: calnexin (human (endogenous in HEK 293)) (UniProt P27824)
T1 sequence: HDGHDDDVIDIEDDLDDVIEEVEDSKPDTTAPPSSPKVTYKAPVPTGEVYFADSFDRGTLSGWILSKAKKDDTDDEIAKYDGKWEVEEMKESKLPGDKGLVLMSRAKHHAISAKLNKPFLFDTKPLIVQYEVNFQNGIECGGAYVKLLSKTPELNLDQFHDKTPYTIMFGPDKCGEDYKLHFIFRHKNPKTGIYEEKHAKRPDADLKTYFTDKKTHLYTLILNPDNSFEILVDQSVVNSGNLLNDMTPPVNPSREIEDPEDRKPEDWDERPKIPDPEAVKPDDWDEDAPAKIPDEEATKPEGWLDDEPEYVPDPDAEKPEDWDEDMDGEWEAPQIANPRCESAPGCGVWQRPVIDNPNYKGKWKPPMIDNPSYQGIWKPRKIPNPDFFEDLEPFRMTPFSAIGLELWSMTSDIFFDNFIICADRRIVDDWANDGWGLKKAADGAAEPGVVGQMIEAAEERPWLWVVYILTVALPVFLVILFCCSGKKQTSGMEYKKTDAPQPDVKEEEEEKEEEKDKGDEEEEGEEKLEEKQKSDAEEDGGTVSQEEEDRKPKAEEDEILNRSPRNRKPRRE


How the values were obtained:
[1] = target: T1, calnexin (human (endogenous in HEK 293)); assay: co-IP; HEK 293 cells transfected with tyrosinase constructs, pulsed 20 min with 35S Met/Cys, chased 0, 0.5, 1, 2 h; 2% CHAPS lysates precipitated with anti-calnexin or anti-calreticulin, eluted with 1% SDS, re-precipitated with T311 anti-tyrosinase; SDS-PAGE, autoradiography
[2] = target: calreticulin (human (endogenous in HEK 293)) (UniProt P27797); assay: as above

Binder | binding [1] | binding [2]
human tyrosinase N-glycosylation mutant Δ5 (N290Q) (enzyme, UniProt P14679 19-529) HFPRACVSSKNLMEKECCPPWSGDRSPCGQLSGRGSCQNILLSNAPLGPQFPFTGVDDRESWPSVFYNRTCQCSGNFMGFNCGNCKFGFWGPNCTERRLLVRRNIFDLSAPEKDKFFAYLTLAKHTISSDYVIPIGTYGQMKNGSTPMFNDINIYDLFVWMHYYVSMDALLGGSEIWRDIDFAHEAPAFLPWHRLFLLRWEQEIQKLTGDENFTIPYWDWRDAEKCDICTDEYMGGQHPTNPNLLSPASFFSSWQIVCSRLEEYNSHQSLCQGTPEGPLRRNPGNHDKSRTPRLPSSADVEFCLSLTQYESGSMDKAANFSFRNTLEGFASPLTGIADASQSSMHNALHIYMNGTMSQVQGSANDPIFLLHHAFVDSIFEQWLRRHRPLQEVYPEANAPIGHNRESYMVPFIPLYRNGDFFISSKDLGYDYSYLQDSDPDSFQDYIKSYLEQASRIWSWLLGAAMVGAVLTALLAGLVSLLCRHKRKQLPEEKQPLLMEKEDYHSLYQSHL | binds | binds
human tyrosinase N-glycosylation mutant Δ2 (N111Q) (enzyme, UniProt P14679 19-529) HFPRACVSSKNLMEKECCPPWSGDRSPCGQLSGRGSCQNILLSNAPLGPQFPFTGVDDRESWPSVFYNRTCQCSGNFMGFNCGNCKFGFWGPQCTERRLLVRRNIFDLSAPEKDKFFAYLTLAKHTISSDYVIPIGTYGQMKNGSTPMFNDINIYDLFVWMHYYVSMDALLGGSEIWRDIDFAHEAPAFLPWHRLFLLRWEQEIQKLTGDENFTIPYWDWRDAEKCDICTDEYMGGQHPTNPNLLSPASFFSSWQIVCSRLEEYNSHQSLCNGTPEGPLRRNPGNHDKSRTPRLPSSADVEFCLSLTQYESGSMDKAANFSFRNTLEGFASPLTGIADASQSSMHNALHIYMNGTMSQVQGSANDPIFLLHHAFVDSIFEQWLRRHRPLQEVYPEANAPIGHNRESYMVPFIPLYRNGDFFISSKDLGYDYSYLQDSDPDSFQDYIKSYLEQASRIWSWLLGAAMVGAVLTALLAGLVSLLCRHKRKQLPEEKQPLLMEKEDYHSLYQSHL | binds | binds
human tyrosinase N-glycosylation mutant Δ4 (N230Q) (enzyme, UniProt P14679 19-529) HFPRACVSSKNLMEKECCPPWSGDRSPCGQLSGRGSCQNILLSNAPLGPQFPFTGVDDRESWPSVFYNRTCQCSGNFMGFNCGNCKFGFWGPNCTERRLLVRRNIFDLSAPEKDKFFAYLTLAKHTISSDYVIPIGTYGQMKNGSTPMFNDINIYDLFVWMHYYVSMDALLGGSEIWRDIDFAHEAPAFLPWHRLFLLRWEQEIQKLTGDEQFTIPYWDWRDAEKCDICTDEYMGGQHPTNPNLLSPASFFSSWQIVCSRLEEYNSHQSLCNGTPEGPLRRNPGNHDKSRTPRLPSSADVEFCLSLTQYESGSMDKAANFSFRNTLEGFASPLTGIADASQSSMHNALHIYMNGTMSQVQGSANDPIFLLHHAFVDSIFEQWLRRHRPLQEVYPEANAPIGHNRESYMVPFIPLYRNGDFFISSKDLGYDYSYLQDSDPDSFQDYIKSYLEQASRIWSWLLGAAMVGAVLTALLAGLVSLLCRHKRKQLPEEKQPLLMEKEDYHSLYQSHL | binds | binds weakly
human tyrosinase N-glycosylation mutant Δ1 (N86Q) (enzyme, UniProt P14679 19-529) HFPRACVSSKNLMEKECCPPWSGDRSPCGQLSGRGSCQNILLSNAPLGPQFPFTGVDDRESWPSVFYQRTCQCSGNFMGFNCGNCKFGFWGPNCTERRLLVRRNIFDLSAPEKDKFFAYLTLAKHTISSDYVIPIGTYGQMKNGSTPMFNDINIYDLFVWMHYYVSMDALLGGSEIWRDIDFAHEAPAFLPWHRLFLLRWEQEIQKLTGDENFTIPYWDWRDAEKCDICTDEYMGGQHPTNPNLLSPASFFSSWQIVCSRLEEYNSHQSLCNGTPEGPLRRNPGNHDKSRTPRLPSSADVEFCLSLTQYESGSMDKAANFSFRNTLEGFASPLTGIADASQSSMHNALHIYMNGTMSQVQGSANDPIFLLHHAFVDSIFEQWLRRHRPLQEVYPEANAPIGHNRESYMVPFIPLYRNGDFFISSKDLGYDYSYLQDSDPDSFQDYIKSYLEQASRIWSWLLGAAMVGAVLTALLAGLVSLLCRHKRKQLPEEKQPLLMEKEDYHSLYQSHL | binds | –

The next lines start with the values.

binding [1] | binding [2] | Binder
binds | binds | wild type human tyrosinase (enzyme, UniProt P14679 19-529) HFPRACVSSKNLMEKECCPPWSGDRSPCGQLSGRGSCQNILLSNAPLGPQFPFTGVDDRESWPSVFYNRTCQCSGNFMGFNCGNCKFGFWGPNCTERRLLVRRNIFDLSAPEKDKFFAYLTLAKHTISSDYVIPIGTYGQMKNGSTPMFNDINIYDLFVWMHYYVSMDALLGGSEIWRDIDFAHEAPAFLPWHRLFLLRWEQEIQKLTGDENFTIPYWDWRDAEKCDICTDEYMGGQHPTNPNLLSPASFFSSWQIVCSRLEEYNSHQSLCNGTPEGPLRRNPGNHDKSRTPRLPSSADVEFCLSLTQYESGSMDKAANFSFRNTLEGFASPLTGIADASQSSMHNALHIYMNGTMSQVQGSANDPIFLLHHAFVDSIFEQWLRRHRPLQEVYPEANAPIGHNRESYMVPFIPLYRNGDFFISSKDLGYDYSYLQDSDPDSFQDYIKSYLEQASRIWSWLLGAAMVGAVLTALLAGLVSLLCRHKRKQLPEEKQPLLMEKEDYHSLYQSHL
binds | binds | human tyrosinase triple N-glycosylation mutant Δ(5,6,7) (N290-N337-N371) (enzyme, UniProt P14679 19-529) HFPRACVSSKNLMEKECCPPWSGDRSPCGQLSGRGSCQNILLSNAPLGPQFPFTGVDDRESWPSVFYNRTCQCSGNFMGFNCGNCKFGFWGPNCTERRLLVRRNIFDLSAPEKDKFFAYLTLAKHTISSDYVIPIGTYGQMKNGSTPMFNDINIYDLFVWMHYYVSMDALLGGSEIWRDIDFAHEAPAFLPWHRLFLLRWEQEIQKLTGDENFTIPYWDWRDAEKCDICTDEYMGGQHPTNPNLLSPASFFSSWQIVCSRLEEYNSHQSLCQGTPEGPLRRNPGNHDKSRTPRLPSSADVEFCLSLTQYESGSMDKAAQFSFRNTLEGFASPLTGIADASQSSMHNALHIYMQGTMSQVQGSANDPIFLLHHAFVDSIFEQWLRRHRPLQEVYPEANAPIGHNRESYMVPFIPLYRNGDFFISSKDLGYDYSYLQDSDPDSFQDYIKSYLEQASRIWSWLLGAAMVGAVLTALLAGLVSLLCRHKRKQLPEEKQPLLMEKEDYHSLYQSHL
binds | binds | human tyrosinase N-glycosylation mutant Δ7 (N371Q) (enzyme, UniProt P14679 19-529) HFPRACVSSKNLMEKECCPPWSGDRSPCGQLSGRGSCQNILLSNAPLGPQFPFTGVDDRESWPSVFYNRTCQCSGNFMGFNCGNCKFGFWGPNCTERRLLVRRNIFDLSAPEKDKFFAYLTLAKHTISSDYVIPIGTYGQMKNGSTPMFNDINIYDLFVWMHYYVSMDALLGGSEIWRDIDFAHEAPAFLPWHRLFLLRWEQEIQKLTGDENFTIPYWDWRDAEKCDICTDEYMGGQHPTNPNLLSPASFFSSWQIVCSRLEEYNSHQSLCNGTPEGPLRRNPGNHDKSRTPRLPSSADVEFCLSLTQYESGSMDKAANFSFRNTLEGFASPLTGIADASQSSMHNALHIYMQGTMSQVQGSANDPIFLLHHAFVDSIFEQWLRRHRPLQEVYPEANAPIGHNRESYMVPFIPLYRNGDFFISSKDLGYDYSYLQDSDPDSFQDYIKSYLEQASRIWSWLLGAAMVGAVLTALLAGLVSLLCRHKRKQLPEEKQPLLMEKEDYHSLYQSHL
binds | – | human tyrosinase N-glycosylation mutant Δ6 (N337Q) (enzyme, UniProt P14679 19-529) HFPRACVSSKNLMEKECCPPWSGDRSPCGQLSGRGSCQNILLSNAPLGPQFPFTGVDDRESWPSVFYNRTCQCSGNFMGFNCGNCKFGFWGPNCTERRLLVRRNIFDLSAPEKDKFFAYLTLAKHTISSDYVIPIGTYGQMKNGSTPMFNDINIYDLFVWMHYYVSMDALLGGSEIWRDIDFAHEAPAFLPWHRLFLLRWEQEIQKLTGDENFTIPYWDWRDAEKCDICTDEYMGGQHPTNPNLLSPASFFSSWQIVCSRLEEYNSHQSLCNGTPEGPLRRNPGNHDKSRTPRLPSSADVEFCLSLTQYESGSMDKAAQFSFRNTLEGFASPLTGIADASQSSMHNALHIYMNGTMSQVQGSANDPIFLLHHAFVDSIFEQWLRRHRPLQEVYPEANAPIGHNRESYMVPFIPLYRNGDFFISSKDLGYDYSYLQDSDPDSFQDYIKSYLEQASRIWSWLLGAAMVGAVLTALLAGLVSLLCRHKRKQLPEEKQPLLMEKEDYHSLYQSHL
binds | – | human tyrosinase triple N-glycosylation mutant Δ(1,2,3) (N86-N111-N161) (enzyme, UniProt P14679 19-529) HFPRACVSSKNLMEKECCPPWSGDRSPCGQLSGRGSCQNILLSNAPLGPQFPFTGVDDRESWPSVFYQRTCQCSGNFMGFNCGNCKFGFWGPQCTERRLLVRRNIFDLSAPEKDKFFAYLTLAKHTISSDYVIPIGTYGQMKQGSTPMFNDINIYDLFVWMHYYVSMDALLGGSEIWRDIDFAHEAPAFLPWHRLFLLRWEQEIQKLTGDENFTIPYWDWRDAEKCDICTDEYMGGQHPTNPNLLSPASFFSSWQIVCSRLEEYNSHQSLCNGTPEGPLRRNPGNHDKSRTPRLPSSADVEFCLSLTQYESGSMDKAANFSFRNTLEGFASPLTGIADASQSSMHNALHIYMNGTMSQVQGSANDPIFLLHHAFVDSIFEQWLRRHRPLQEVYPEANAPIGHNRESYMVPFIPLYRNGDFFISSKDLGYDYSYLQDSDPDSFQDYIKSYLEQASRIWSWLLGAAMVGAVLTALLAGLVSLLCRHKRKQLPEEKQPLLMEKEDYHSLYQSHL
